# Test results reported in the supplement of paper PMC11348887.
# Counter-ions that a name gives are not always drawn. Some of the results follow. Most values lie at the level of the controls, where differences are scatter.
# What was measured:
# Conditions in all cases: 5 µM; treatment: days 7-14 after plating, readout day 21
# [1] = tested on: hPSC-derived cortical neurons (WA09); experiment: nucleus area z-score vs screen plate; higher = larger nuclei (more mature)
# [2] = tested on: hPSC-derived cortical neurons (WA09); experiment: total neurite length per nucleus (MAP2) z-score; higher = more neurite growth
# [3] = tested on: hPSC-derived cortical neurons (WA09); experiment: nucleus roundness z-score vs screen plate; higher = rounder nuclei (more mature)
# [4] = tested on: hPSC-derived cortical neurons (WA09); experiment: KCl-induced FOS+/EGR-1+ double-positive nuclei fraction z-score (KCl minus unstimulated); higher = stronger activity-induced IEG response
Structure (SMILES),nucleus area z-score [1],total neurite length per nucleus (z-score) [2],nucleus roundness z-score [3],KCl-induced FOS+/EGR-1+ double-positive nuclei fraction z-score [4]
NCCS [Cysteamine HCl],0.00911,-0.304,-0.31,-1.54
CNC(=O)c1ccc(N2C(=S)N(c3ccc(C#N)c(C(F)(F)F)c3)C(=O)C2(C)C)cc1F [Enzalutamide (MDV3100)],2.84,-0.221,-0.0993,1.68
Cc1cc(C)c2c(c1)[C@@H](N(Cc1cc(C(F)(F)F)cc(C(F)(F)F)c1)c1nnn(C)n1)CCCN2C[C@H]1CC[C@H](C(=O)O)CC1,0.817,0.275,0.767,-0.208
C=C1CC[C@@H]2[C@](C)(CO)[C@H](O)CC[C@@]2(C)[C@@H]1C/C=C1/C(=O)OC[C@H]1O [Andrographolide],0.522,-0.911,-1.53,-0.731
CC(C)C[C@H](NC(=O)[C@@H](Cc1cccc2ccccc12)NC(=O)[C@H](Cc1ccc(O)cc1)NC(=O)[C@H](CO)NC(=O)[C@H](Cc1c[nH]c2ccccc12)NC(=O)[C@H](Cc1cnc[nH]1)NC(=O)[C@@H]1CCC(=O)N1)C(=O)N[C@@H](CCCNC(=N)N)C(=O)N1CCC[C@H]1C(=O)NCC(N)=O [Nafarelin Acetate],0.0512,1.19,-0.573,1.16
Cc1c(-c2cnccn2)ssc1=S [Oltipraz],0.481,0.569,0.647,0.252
CCC(=O)NCC[C@@H]1CCc2ccc3c(c21)CCO3 [Ramelteon],-0.5,0.0949,0.333,2.16
CC(C)(C)C[C@@H]1N[C@@H](C(=O)N[C@H]2CC[C@H](O)CC2)[C@H](c2cccc(Cl)c2F)[C@]12C(=O)Nc1cc(Cl)ccc12,-1.12,1.8,0.118,1.39
NS(=O)(=O)NCCNc1nonc1/C(=N/O)Nc1ccc(F)c(Br)c1,1.12,-0.442,0.371,0.27
CC1CNc2c(cccc2S(=O)(=O)N[C@@H](CCCNC(=N)N)C(=O)N2CC[C@@H](C)C[C@@H]2C(=O)O)C1 (some centres undefined) [Argatroban],-1.11,0.0809,-0.000867,0.354
CCCCc1oc2ccccc2c1C(=O)c1cc(I)c(OCCN(CC)CC)c(I)c1 [Amiodarone HCl],-2.03,-0.455,-0.548,-0.281
c1ccc2c(c1)CCCC2C1=NCCN1 (centres undefined) [Tetrahydrozoline HCl],-1.84,-0.201,-0.912,-0.541
O=C(O)CCCc1c[nH]c2ccccc12 [3-Indolebutyric acid (IBA)],-0.743,0.4,1.02,0.911
CC1=C(C(=O)OC2CCCCC2)C(c2ccc([N+](=O)[O-])cc2)C2=C(CC(C)(C)CC2=O)N1 (centres undefined),0.452,0.0384,-0.486,0.183
Cn1cc(-c2ccc3nnc(C(F)(F)c4ccc5ncccc5c4)n3n2)cn1,2.24,1.52,1.03,1.45
Cc1c(OCC(F)(F)F)ccnc1C[S+]([O-])c1nc2ccccc2[nH]1 (centres undefined) [Lansoprazole],1.43,-0.602,-0.949,0.66
Cc1ccc(Cl)cc1N(CC(=O)Nc1c(F)cccc1F)S(C)(=O)=O,-0.209,-0.589,0.128,0.107
COc1ccc(-c2nc(N3CCOCC3)c3sc(CN(C)c4ncc(C(=O)NO)cn4)cc3n2)cn1,-11.4,-4.8,-3.82,-0.542
COc1cc2nc(N3CCCN(C)CC3)nc(NC3CCN(Cc4ccccc4)CC3)c2cc1OC,-14.3,-4.54,0.7,-0.35

Structure (SMILES),nucleus area z-score [1],total neurite length per nucleus (z-score) [2],nucleus roundness z-score [3],KCl-induced FOS+/EGR-1+ double-positive nuclei fraction z-score [4]
CC(=O)Oc1ccccc1C(=O)O [Aspirin],0.46,0.615,0.235,-0.0913
CCOc1cc(CC(=O)N[C@@H](CC(C)C)c2ccccc2N2CCCCC2)ccc1C(=O)O [Repaglinide],-0.173,0.0498,0.288,1.72
CC(=O)[C@H]1CC[C@H]2[C@@H]3CC=C4C[C@@H](O)CC[C@]4(C)[C@H]3CC[C@]12C [Pregnenolone],0.909,0.325,0.843,-0.483
C=C1CC[C@H](O)C/C1=C/C=C1\CCC[C@]2(C)[C@@H]([C@H](C)/C=C/[C@H](C)C(C)C)CC[C@@H]12 [Vitamin D2],0.89,0.0584,-0.0765,-0.413
CC(O)(P(=O)(O)O)P(=O)(O)O [Etidronate],-2.48,-0.287,0.0244,-0.943
CS(=O)(=O)c1ccc(-c2cnc(N)c(C(=O)Nc3ccccc3)n2)cc1,1.46,1.04,0.536,1.4
Cc1[nH]nc(C(F)(F)F)c1Cc1sc2c(c1C(=O)N1C[C@](C)(O)CO1)c(=O)n(C)c(=O)n2C(C)C,-0.292,0.142,-0.769,-0.736
Cc1coc2c1C(=O)C(=O)c1c-2ccc2c(C)cccc12 [Tanshinone I],-0.69,-2.51,-2.09,1.29
CC(=O)N1c2ccc(-c3ccc(C(=O)O)cc3)cc2[C@H](Nc2ccc(Cl)cc2)C[C@@H]1C,-3.62,-1.74,-5.19,0.0323
CCC[C@H](N[C@H]1CCc2cc(F)cc(F)c2C1)C(=O)Nc1cn(C(C)(C)CNCC(C)(C)C)cn1,-0.527,-1.52,-0.519,0.702
CN1CCN(c2ccc3nc(-c4c(N)c5c(F)cccc5[nH]c4=O)[nH]c3c2)CC1 [Dovitinib (TKI-258_ CHIR-258)],-4.64,-2.45,-5.14,-0.13
CCCC(CCC)C(=O)O[C@H]1C[C@H]2CC[C@@H](C1)[N+]2(C)C [Anisotropine Methylbromide],-0.405,0.328,-0.193,-0.846
CCC(=O)Nc1cccc(Oc2nc(Nc3ccc(N4CCN(C)CC4)cc3OC)ncc2Cl)c1,0.916,-0.944,-0.755,-0.728
N[C@@H](Cc1cc(I)c(Oc2ccc(O)c(I)c2)c(I)c1)C(=O)O [Liothyronine Sodium],-0.341,0.797,0.422,0.504
CCCCNc1ncc(C(=O)NCc2ccc(-n3ccnc3)cc2)c(NC2CCC(O)CC2)n1 (centres undefined),-0.61,0.154,0.012,-1.72
Cc1c(CN2CCN(C(=O)[C@H](C)O)CC2)sc2c(N3CCOCC3)nc(-c3cnc(N)nc3)nc12,-6.9,-2.89,-1.97,-0.508
CC/C(=C(\c1ccc(O)cc1)c1ccc(OCCN(C)C)cc1)c1ccccc1 [4-Hydroxytamoxifen],-2.57,-2.44,-2.2,-0.905
CC(C)C(=O)Oc1ccc(CO)cc1[C@H](CCN(C(C)C)C(C)C)c1ccccc1 [Fesoterodine Fumarate],-0.817,-0.0238,0.0734,-0.773
CCCc1nn(C)c2c(=O)[nH]c(-c3cc(S(=O)(=O)N4CCN(C)CC4)ccc3OCC)nc12 [Sildenafil Mesylate],-0.112,-0.234,-0.0789,-0.749

# 3 structures out of the list, arranged by formula weight, largest number first.
Structure (SMILES),nucleus area z-score [1],total neurite length per nucleus (z-score) [2],nucleus roundness z-score [3],KCl-induced FOS+/EGR-1+ double-positive nuclei fraction z-score [4]
C=C1CC[C@H](O)C/C1=C/C=C1\CCC[C@]2(C)[C@@H]([C@H](C)/C=C/[C@H](C)C(C)C)CC[C@@H]12 [Vitamin D2],0.89,0.0584,-0.0765,-0.413
CCCC(CCC)C(=O)O[C@H]1C[C@H]2CC[C@@H](C1)[N+]2(C)C [Anisotropine Methylbromide],-0.405,0.328,-0.193,-0.846
CC(=O)Oc1ccccc1C(=O)O [Aspirin],0.46,0.615,0.235,-0.0913

# Going on with the list:

Structure (SMILES),nucleus area z-score [1],total neurite length per nucleus (z-score) [2],nucleus roundness z-score [3],KCl-induced FOS+/EGR-1+ double-positive nuclei fraction z-score [4]
CCN1CCN(Cc2ccc(Nc3ncc(F)c(-c4cc(F)c5nc(C)n(C(C)C)c5c4)n3)nc2)CC1,-12.6,-4.66,-3.9,-0.633
COc1cc2nccc(Oc3ccc(NC(=O)C4(C(=O)Nc5ccc(F)cc5)CC4)cc3)c2cc1OC,0.889,1.29,0.919,1.25
CCn1cc(-c2ccnc3[nH]c(-c4cccc(CN(C)C)c4)cc23)c(-c2ccc(NC(=O)N(C)C)cc2)n1,-3.17,-1.89,-1.31,-0.84
Fc1ccc(CNc2ncnc3ccc(F)cc23)cc1 [Spautin-1],0.314,0.0789,-0.0482,-1.36
CC(=O)NC(CC(C)C)C(=O)O (centres undefined) [Acetylleucine],0.834,-0.0143,0.0974,0.439
NCCCCC(NC(=O)C1CCCN1C(=O)C1CSSCC(N)C(=O)NC(Cc2ccc(O)cc2)C(=O)NC(Cc2ccccc2)C(=O)NC(CCC(N)=O)C(=O)NC(CC(N)=O)C(=O)N1)C(=O)NCC(N)=O (centres undefined) [Lypressin Acetate],1.08,-0.959,-0.0896,1.37
O=C(O)[C@H]1CSC(c2nc3ccc(O)cc3s2)=N1 [D-Luciferin],1.4,0.457,-0.253,0.991
COc1ccc(C(=O)NCc2ccc(OCCN(C)C)cc2)cc1OC [Itopride hydrochloride],-0.0856,0.52,1.16,0.422
Cc1ccc(-c2c(-c3nn(C)c4ncnc(N5CC[C@H](N6CCCCC6)C5)c34)cnn2C)cc1,-0.195,-0.416,0.00281,-0.35
N=C(NCCCCCCNC(=N)NC(=N)Nc1ccc(Cl)cc1)NC(=N)Nc1ccc(Cl)cc1 [Chlorhexidine HCl],-10.6,-4.39,-2.48,-0.967
C/C(O)=C(\C#N)C(=O)Nc1ccc(C(F)(F)F)cc1 [Teriflunomide],0.432,-0.244,-0.569,0.346
Cc1cccc(Nc2ccncc2S(=O)(=O)NC(=O)NC(C)C)c1 [Torsemide],-0.281,-0.502,-0.415,0.928
CN(C)CCC(c1ccc(Br)cc1)c1ccccn1 (centres undefined) [Brompheniramine hydrogen maleate],1.09,-0.241,0.556,0.00466
Nc1c2c(nc3ccccc13)CCCC2 [Tacrine HCl],-0.179,0.941,0.348,1.48
CCOC(=O)[C@H](CCc1ccccc1)N[C@H]1CCc2ccccc2N(CC(=O)O)C1=O [Benazepril HCl],-0.405,1.01,0.368,2.89
Clc1ccc2c(c1)C(N1CCNCC1)=Nc1ccccc1O2 [Amoxapine],2.24,0.124,-0.994,0.353
Cc1onc(-c2c(Cl)cccc2Cl)c1C(=O)N[C@@H]1C(=O)N2[C@@H]1SC(C)(C)[C@@H]2C(=O)O [Dicloxacillin Sodium],0.309,-0.958,-0.625,-1.3
COc1ccc(-c2ccc3ncc4c(c3c2)n(-c2ccc(N3CCNCC3)c(C(F)(F)F)c2)c(=O)n4C)cn1,-11.3,-3.98,4.95,-0.479
